Assay results as given in the supplement of paper PMC4371806.
Whole data set: some 1,600 compounds, median “plate-normalized OD600 growth (mean of duplicates)” near 0.31, cut for the lowest 2% near 0.23. The list shows a part of the results.

Tested on: Escherichia coli BW25113
Assay: plate-normalized OD600 growth (mean of duplicates) (OD600 (normalized)); higher = more growth (less inhibition)
Conditions: 10 µM
Procedure: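 E. coli BW25113 in LB (100 µl, 96-well, no shaking) was exposed to 10 µM of each compound (here the ChemBridge subset of a ~30,000-member library) and grown at 37°C for 24 h or 15°C for 48 h, in duplicate. Growth was read as OD600 and the duplicate ODs were normalized across screening plates to correct plate-to-plate variation.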

Row | Compound | plate-normalized OD600 growth (temperature: 15°C, 48 h) | plate-normalized OD600 growth (temperature: 37°C, 24 h)
1 | Brc1ccc(CN2CCN(c3ccccc3)CC2)s1 | 0.248 | 0.615
2 | NC(=O)c1c(NC(=O)C2CCCO2)sc2c1CCCCCC2 (stereo unspecified) | 0.258 | 0.622
3 | CC1=CCC2C(=O)N(Cc3ccccc3)C(=O)C2C1 (stereo unspecified) | 0.244 | 0.612
4 | C/C(=C\c1ccccc1)CN1CCN(c2ccccc2F)CC1 | 0.261 | 0.64
5 | Cc1cc([O-])c2n(cn[n+]2Cc2ccccc2)n1 | 0.262 | 0.631
6 | O=C(Nc1ccc(F)cc1)C1CC(=O)N(c2ccc(Br)cc2)C1 (stereo unspecified) | 0.24 | 0.603
7 | O=C(Nc1ccc(F)cc1F)c1cccc(Br)c1 | 0.259 | 0.605
8 | CC(C)(C)S(=O)(=O)c1sc(C=O)cc1C=O | 0.241 | 0.618
9 | COc1ccc(/C=C(\NC(=O)c2ccco2)C(=O)N2CCOCC2)cc1 | 0.264 | 0.635
10 | N#Cc1c(NC(=O)c2ccc(Cl)cc2Cl)sc2c1CCCCC2 | 0.245 | 0.62
11 | N#Cc1ccccc1NC(=O)C1CC1(c1ccccc1)c1ccccc1 (stereo unspecified) | 0.255 | 0.635
12 | O=C(Cc1ccc(Br)cc1)N1CCCc2ccccc21 | 0.248 | 0.622
13 | O=C(NCc1ccccc1)c1cccc(S(=O)(=O)N2CCCCC2)c1 | 0.238 | 0.612
14 | NC(=O)c1ccc2c(c1)C1c3ccccc3C2c2ccccc21 | 0.237 | 0.608
15 | Cc1cccc(N=C(N)NC(N)=O)c1 | 0.253 | 0.638
16 | CCN(CC)C(=O)CSc1nc(O)cc(=O)n1-c1ccccc1OC | 0.259 | 0.626
17 | Fc1ccccc1-c1nc(-c2ccncc2)no1 | 0.238 | 0.613
18 | O=c1[nH]c(/C=C/c2cccc(I)c2)c([N+](=O)[O-])c(=O)[nH]1 | 0.265 | 0.643
19 | CCN1CCC(N2CCCC(C(=O)N(CC)CC)C2)CC1 (stereo unspecified) | 0.237 | 0.589
20 | COc1ccc(CN2CCCN(C)CC2)c(OC)c1 | 0.25 | 0.619
21 | COc1cccc(OC)c1C(=O)Nc1cc(C)cc(C)c1 | 0.242 | 0.611
22 | N#CC1=C(N)OC2=C(C(=O)CCC2)C1c1ccc(Oc2ccc([N+](=O)[O-])cc2Cl)cc1 (stereo unspecified) | 0.255 | 0.645
23 | Cc1ncc([N+](=O)[O-])n1Cc1ccccc1Cl | 0.251 | 0.61
24 | O=C1CCCc2sc([N+](=O)[O-])cc21 | 0.262 | 0.676
25 | Cc1sc2ncnc(SCC(=O)O)c2c1C | 0.249 | 0.612
26 | CCCN1CCC(NCc2ccc(Cl)c(Cl)c2)CC1 | 0.247 | 0.587
27 | COc1ccccc1N1CCN(Cc2cccs2)CC1 | 0.235 | 0.598

Row | Compound | plate-normalized OD600 growth (temperature: 15°C, 48 h) | plate-normalized OD600 growth (temperature: 37°C, 24 h)
28 | CCSc1cnn(-c2ccccc2)c(=O)c1SCC | 0.261 | 0.61
29 | Cc1cc(NCc2cccnc2)ccc1Br | 0.274 | 0.635
30 | Cc1cn2cc(-c3ccc([N+](=O)[O-])cc3)nc2s1 | 0.255 | 0.654
31 | Nc1ccc2c(c1)S(=O)(=O)c1cc(N)ccc1O2 | 0.253 | 0.625
32 | CCC(=O)Nc1ccc2nc(C)[nH]c2c1 | 0.239 | 0.598
33 | O=C1CC(N2CCOCC2)C(=O)N1c1ccc(I)cc1 (stereo unspecified) | 0.257 | 0.645
34 | O=S(=O)(NCCc1ccccc1)c1cccc2nsnc12 | 0.241 | 0.666
35 | O=C1c2ccccc2C(=O)N1S(=O)(=O)c1ccccc1 | 0.256 | 0.622
36 | COc1cccc(Nc2nc(-c3ccc(OC)c(F)c3)cs2)c1 | 0.245 | 0.609
37 | CC(=O)c1cccc(NC(=O)CSCc2cccc(Br)c2)c1 | 0.245 | 0.625
38 | Cc1ccc(C23CC4CC(CC(O)(C4)C2)C3)cc1[N+](=O)[O-] | 0.235 | 0.638
39 | CCCOc1ccc(CC(=N)N)cc1 | 0.247 | 0.617
40 | O=C(O)Cn1c2ccccc2c2cc([N+](=O)[O-])ccc21 | 0.226 | 0.625
41 | O=C(CN1CCN(c2ccc(Cl)cc2[N+](=O)[O-])CC1)N1CCOCC1 | 0.236 | 0.602
42 | N=c1c2c3c(sc2nc2n1CCCCC2)CCCCC3 | 0.24 | 0.61
43 | CCOC(=O)N1CCN(Cc2ccccc2Cl)CC1 | 0.244 | 0.621
44 | CN(C)c1ccc(CN2CCc3ccccc3C2)cc1 | 0.244 | 0.619
45 | N#Cc1c(N)nc(SCC(=O)c2ccc(Cl)cc2)c(C#N)c1-c1ccco1 | 0.257 | 0.615
46 | COc1ccc(C2=NCCc3cc(OC)c(OC)cc32)cc1 | 0.249 | 0.605
47 | Oc1ccccc1-c1noc(-c2ccccc2O)n1 | 0.237 | 0.604
48 | COc1ccc(C2CC(C3C(=O)c4ccccc4C3=O)=NN2)cc1 (stereo unspecified) | 0.249 | 0.607
49 | COc1ccc(OC)c(Nc2nc(C)c(C(C)=O)s2)c1 | 0.272 | 0.646
50 | Cc1ccc(NC(=O)C2C3C4CCC(C4)C23)c(C)c1 (stereo unspecified) | 0.236 | 0.591
51 | O=C1CC(N2CCN(C/C=C/c3ccccc3)CC2)C(=O)N1c1ccc(Cl)cc1 (stereo unspecified) | 0.247 | 0.628
52 | COc1ccc(Nc2ncc(C#N)c(Nc3ccccc3)c2C#N)cc1 | 0.253 | 0.633
53 | [O-][n+]1c2c(nn1-c1ccccc1)-c1nonc1CC2 | 0.258 | 0.618

Full records, quoted from the list. Values in the order: plate-normalized OD600 growth (temperature: 15°C, 48 h) | plate-normalized OD600 growth (temperature: 37°C, 24 h)
`CCSc1cnn(-c2ccccc2)c(=O)c1SCC` is listed as 0.261 | 0.61
`COc1ccc(Nc2ncc(C#N)c(Nc3ccccc3)c2C#N)cc1` is listed as 0.253 | 0.633
`[O-][n+]1c2c(nn1-c1ccccc1)-c1nonc1CC2` is listed as 0.258 | 0.618
